Laboratory results reported in publication PMC3437492 (British Journal of Pharmacology, 2012).

Tested on: P. falciparum-infected erythrocytes
Test: Total choline entry into P. falciparum-infected erythrocytes
Assay type: cell-based
Details: 150 µM furosemide, 8 min pre-incubation

SMILES: NS(=O)(=O)c1cc(C(=O)O)c(NCc2ccco2)cc1Cl [furosemide, reference compound]
- Effect on choline uptake into IRBC: markedly decreased
